Values from PubChem BioAssay AID1259308 (NCATS, 2017)
Screen: 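Candidate targets for better recombinant protein yield in mammalian cells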 (primary screen). Cells: human HEK293 embryonic kidney cells stably expressing firefly luciferase (HEK-CMV-Luc2-Hygro). Reagents: single siRNA against human genes, 0.8 pmol siRNA per well. Duration: 72 h. Measured: 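Luciferase light (ONE-Glo) measured on one replicate plate set and viability (CellTiter-Glo) on the other, scaled to a negative control siRNA, with robust z-scores and luciferase per cell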. Direction: total luciferase, z-score and total luciferase, % of control: higher = more reporter protein produced; luciferase per cell, z-score: higher = more reporter output per viable cell; viable cells, % of control: higher = more viable cells. Active means: 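Active when the median/MAD z-score for overall luciferase is greater than 3; a gene was taken forward for validation with new siRNAs if at least two of its three siRNAs passed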. Meaning of the calls: active = raised luciferase; inactive = no rise.
Here is a random part of about 59,000 reagents. In the full data, about 1,510 (2.6%) were called active. 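Calls use total luciferase alone and ignore viability, so some active siRNAs may act by altering cell number.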 Unmarked entries are inactive. Reagents against one gene are numbered here. No sequences are given here.

target gene	siRNA no.	total luciferase, z-score	total luciferase, % of control	luciferase per cell, z-score	viable cells, % of control
B3GALT4	1	0.127	84.4	0.551	81.6
B3GALT4	2	0.231	86.5	-0.238	103
B3GALT4	3	0.443	90.7	-0.0881	104
OR52H1	1	-0.548	71	0.5	69.5
OR52H1	2	-0.887	64.2	-0.881	90.5
OR52H1	3	-0.0981	79.9	-0.292	96.5
LAS1L	1	-2.31	35.9	-2.67	81.1
LAS1L	2	1.68	115	1.54	85.8
LAS1L	3	0.493	91.7	0.427	91.6
RAD9B	1	-0.559	70.8	-0.989	103
RAD9B	2	-0.504	71.9	-0.464	90.7
RAD9B	3	-0.339	75.1	-0.661	99.9
NLRC3	1	1.72	116	1.99	76.9
NLRC3	2	1.66	115	0.853	103
NLRC3	3	2.13	124	1.69	88.9
TXLNGY	1	-0.837	65.2	-0.771	89.3
TXLNGY	2	-2.1	40.2	-2.52	87.2
TXLNGY	3	1.59	113	1.53	84.8
TXLNGY	4	0.63	94.4	1.24	76.1
TXLNGY	5	0.463	91.1	0.689	84.9
TXLNGY	6	-0.268	76.6	0.483	75.3
ZDHHC16	1	0.681	95.4	0.295	98.7
ZDHHC16	2	0.685	95.5	0.613	90.8
ZDHHC16	3	0.603	93.9	1.23	76
GGA1	1	0.0494	82.9	-0.118	95.5
GGA1	2	-0.471	72.5	-0.467	91.6
GGA1	3	-0.912	63.8	1.38	49.6
RAD18	1	1.21	106	1.53	79.2
RAD18	2	0.927	100	0.43	100
RAD18	3	-0.793	66.1	-1.05	97.5
ACKR2	1	0.682	95.5	1.06	80.7
ACKR2	2	0.133	84.5	0.226	89
ACKR2	3	-0.736	67.2	-0.933	96
ARL8B	1	-0.315	75.6	-0.927	108
ARL8B	2	1.54	112	2.82	59.8
ARL8B	3	-0.138	79.1	0.401	79.6
MARCHF6	1	-0.604	69.9	-0.657	92.8
MARCHF6	2	1.33	108	2.34	65.3
MARCHF6	3	-0.799	66	-1.26	103
FOCAD	1	-0.701	67.9	-0.169	79.4
FOCAD	2	0.987	102	0.868	90.3
FOCAD	3	-1.36	54.8	-1.83	99.2
CPA4	1	2.33	128	1.38	99.6
CPA4	2	-0.977	62.5	-1.28	97.7
CPA4	3	0.935	100	0.123	109
TMEM87A	1	1.25	107	1.72	75.9
TMEM87A	2	0.835	98.5	0.455	97.6
TMEM87A	3	-0.352	74.9	-0.385	92.6
POLR1D	1	-0.0727	80.4	0.163	86.1
POLR1D	2	0.544	92.7	0.44	92.2
POLR1D	3	-1.12	59.6	-0.99	86.4
LY6H	1	0.189	85.6	0.317	88
LY6H	2	0.316	88.2	0.555	85.1
LY6H	3	0.619	94.2	0.972	81.5
VPS28	1	1.3	108	1.5	81.1
VPS28	2	-0.0434	81	-0.427	101
VPS28	3	1.43	110	0.696	103

Part of the list above, reformatted:
{"target gene": "GGA1", "siRNA no.": 2, "total luciferase, z-score": -0.471, "total luciferase, % of control": 72.5, "luciferase per cell, z-score": -0.467, "viable cells, % of control": 91.6}
{"target gene": "GGA1", "siRNA no.": 3, "total luciferase, z-score": -0.912, "total luciferase, % of control": 63.8, "luciferase per cell, z-score": 1.38, "viable cells, % of control": 49.6}
{"target gene": "RAD18", "siRNA no.": 1, "total luciferase, z-score": 1.21, "total luciferase, % of control": 106, "luciferase per cell, z-score": 1.53, "viable cells, % of control": 79.2}
{"target gene": "RAD18", "siRNA no.": 2, "total luciferase, z-score": 0.927, "total luciferase, % of control": 100, "luciferase per cell, z-score": 0.43, "viable cells, % of control": 100}
{"target gene": "RAD18", "siRNA no.": 3, "total luciferase, z-score": -0.793, "total luciferase, % of control": 66.1, "luciferase per cell, z-score": -1.05, "viable cells, % of control": 97.5}
{"target gene": "ACKR2", "siRNA no.": 1, "total luciferase, z-score": 0.682, "total luciferase, % of control": 95.5, "luciferase per cell, z-score": 1.06, "viable cells, % of control": 80.7}
{"target gene": "ACKR2", "siRNA no.": 2, "total luciferase, z-score": 0.133, "total luciferase, % of control": 84.5, "luciferase per cell, z-score": 0.226, "viable cells, % of control": 89}
{"target gene": "ACKR2", "siRNA no.": 3, "total luciferase, z-score": -0.736, "total luciferase, % of control": 67.2, "luciferase per cell, z-score": -0.933, "viable cells, % of control": 96}
{"target gene": "ARL8B", "siRNA no.": 1, "total luciferase, z-score": -0.315, "total luciferase, % of control": 75.6, "luciferase per cell, z-score": -0.927, "viable cells, % of control": 108}
